Source: paper PMC13053990
These are yes or no findings as the source states them, for the method shown. In cells and extracts the contact can be indirect. A yes stands for co-enrichment or nearness to the bait. Other partners may have been found. One block for each binder: values may come before it.

Target: EGFP-miPEP8 (Enhanced Green Fluorescent Protein-miPEP8) fused protein (Drosophila melanogaster)
Experiment: affinity purification with mass spectrometry; GFP-Trap agarose beads O/N at 4 °C on lysates of S2 cells transfected with EGFP, EGFP-miPEP8 or EGFP-miPEP8 SLiMmt; lysis buffer 50 mM Tris pH 7.5, 50 mM NaCl, 5% glycerol, 0.1% Igepal; four washes; LC-MS/MS, MaxQuant

binding: binds
B1: ref(2)P (refractory to sigma P), the orthologue of the human p62/Sequestosome 1 protein (protein, UniProt P14199 1-599)
chain: MPEKLLKITYQGAGPQKKINAYLRMPSQNYTILRREIELYLFQERQLPKCDVRTFWIDADKDEIEIVNQNDYEIFLAKCESNMHVQVAPLAPVEEPKATKQEGSSANAEAPSVDDPSNFTIHDAVECDGCGLAPLIGFRYKCVQCSNYDLCQKCELAHKHPEHLMLRMPTNNGPGMVDAWFTGPGLGRRSGRRSRGHCPFQETNQADPAGEPARDSRRERRQARRHAGVLTQFVEMMTNLPLNTTTATAPAEPQKPKAAEQTESPPQAEPTVTAEKAAESEAKPTEPKKVNTDQSVPRTEDPVTTPRSTQPTTPVINLDNISQIVPPEYMSAGIEILNNFSEMFSKIIDTTEGGDSGIFAPSTTPSAENKKPEEQGQSSGQSGASSANQSAVPSAAPSANQSNVPSANQSATPSISGSIPDAQLETEPLNPKPSETTTETEQERRRSDSLDPEWQLIDNAYSANNSNLINLDTTNPTAAPQEPVRDFGQLGELLRQHMNEEARVEQASANTQTAQVDTVSTSTSTTSVTTNSVGTSPAAPDDKRTVPVYHTDESINKSIHAMMAMGFSNEGAWLTQLLESVQGNISAALDVMNVSQNRN

binding: binds
B2: PI3K92 E (Phosphatidylinositol 3-kinase 92E) (protein, UniProt P91634 1-1088)
chain: MNMMDNRALAYVAHQPKYETPPEEAEPPCMRFSVNLWKNEMLNWVDLICLLPNGFLLELRVNPANTIQVIKVEMVNQAKQMPLGYVIKEACEYQVYGISTFNIEPYTDETKRLSEVQPYFGILSLGERTDTTSFSSDYELTKMVNGMIGTTFDHNRTHGSPEIDDFRLYMTQTCDNIELERSAYTWQQRLLYEHPLRLANSTKMPELIRERHPTRTFLIVVKNENDQSTFTLSVNEQDTPFSLTESTLQKMNRSQMKMNDRTSDYILKVSGRDEYLLGDYPLIQFLYIQEMLSDSAVPNVVLQSVYRLESYINHHNEQAMVTKRPLPKKRTVHLHKSISSLWDMGNYFQLTLHSISNVNFDKTRALKVGVHVCLYHGDKKLCAQRSTDSPNGNFDTFLFNDLVMDFDIQMRNLPRMTRLCIVIFEVTKMSRSKKSSNNKDIALKDVPYNKNPLAWVNTTIFDHKDILRTGRHTLYTWTYADDIQSVEVFHPLGTIEPNPRKEECALVDLTFLSSGTGTVRYPSEEVVLQYAADREQVNRLQRQLAGPEKPIKELKELMANYTGLDKIYEMVDQDRNAIWERRNDILRELPEELSILLHCVYWKERDDVADMWYLLKQWPLISIERSLELLDYAYPDPAVRRFAIRCLHFLKDEDLLLYLLQLVQAIKHESYLESDLVVFLLERALRNQRIGHYFFWHLRSEMQTPSMQTRFGLLLEVYLKGCKHHVAPLRKQLHVLEKLKQGSLIAKKGSKEKVKTMLQDFLRDQRNSAVFQNIQNPLNPSFRCSGVTPDRCKVMDSKMRPLWVVFENADVNASDVHIIFKNGDDLRQDMLTLQMLRVMDQLWKRDGMDFRMNIYNCISMEKSLGMIEVVRHAETIANIQKEKGMFSATSPFKKGSLLSWLKEHNKPADKLNKAINEFTLSCAGYCVATYVLGVADRHSDNIMVKRNGQLFHIDFGHILGHFKEKLGVRRERVPFVLTHDFVYVINKGFNDRESKEFCHFQELCERAFLVLRKHGCLILSLFSMMISTGLPELSSEKDLDYLRETLVLDYTEEKAREHFRAKFSEALANSWKTSLNWASHNFSKNNKQ
